US20150368351A1
No constants are given. Whether binding was seen depends on the method and setting. Some binding calls cover weakened binding; strength is not graded here.

The chains behind the UniProt entries cited, without tags or fusion partners. Where a name states a change or a piece, a line headed by the entry shows the natural chain unless it says otherwise. A line that says so, or that is headed by a name, gives the form on record, which may keep a tag or linker.
UniProt Q02223: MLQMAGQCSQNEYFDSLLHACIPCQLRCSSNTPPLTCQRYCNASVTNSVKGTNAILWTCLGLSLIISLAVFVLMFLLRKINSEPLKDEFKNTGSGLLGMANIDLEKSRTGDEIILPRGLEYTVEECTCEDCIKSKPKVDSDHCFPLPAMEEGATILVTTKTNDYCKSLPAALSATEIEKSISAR
recombinant mouse Δ-APRIL tagged with hemagglutinin (HA) (R&D Systems Europe, #7907-AP-010) (Q9D777, form named): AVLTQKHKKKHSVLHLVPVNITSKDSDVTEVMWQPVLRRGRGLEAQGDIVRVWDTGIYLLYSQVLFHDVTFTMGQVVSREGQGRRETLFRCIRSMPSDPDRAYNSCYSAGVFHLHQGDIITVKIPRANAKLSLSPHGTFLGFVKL

Target: human BCMA on BCMA-expressing multiple myeloma cells (H929, RPMI-8226) (human) (UniProt Q02223)
Test: flow cytometry on H929 cells, Δ-APRIL (HA-tagged) at […] incubated simultaneously with 20 ug/mL isotype control or clone 83A10, fluorochrome-conjugated anti-HA detection

## recombinant mouse Δ-APRIL tagged with hemagglutinin (HA) (R&D Systems Europe, #7907-AP-010) (from UniProt Q9D777 96-241) (ligand)
  binding: binds
